PMC7797033

By UniProt entry, the sequences of proteins in these tests, tags left out.
UniProt Q06609, whole entry I287T: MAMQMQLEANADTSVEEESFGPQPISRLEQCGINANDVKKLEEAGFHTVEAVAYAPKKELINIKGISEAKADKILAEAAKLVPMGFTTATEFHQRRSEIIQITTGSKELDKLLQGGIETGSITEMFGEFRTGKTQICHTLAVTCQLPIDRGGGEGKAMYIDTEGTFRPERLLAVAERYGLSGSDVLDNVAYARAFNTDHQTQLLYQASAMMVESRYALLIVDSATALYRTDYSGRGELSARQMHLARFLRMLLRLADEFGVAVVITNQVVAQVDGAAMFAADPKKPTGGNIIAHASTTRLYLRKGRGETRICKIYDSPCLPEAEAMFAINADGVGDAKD
UniProt Q06609, whole entry K133A: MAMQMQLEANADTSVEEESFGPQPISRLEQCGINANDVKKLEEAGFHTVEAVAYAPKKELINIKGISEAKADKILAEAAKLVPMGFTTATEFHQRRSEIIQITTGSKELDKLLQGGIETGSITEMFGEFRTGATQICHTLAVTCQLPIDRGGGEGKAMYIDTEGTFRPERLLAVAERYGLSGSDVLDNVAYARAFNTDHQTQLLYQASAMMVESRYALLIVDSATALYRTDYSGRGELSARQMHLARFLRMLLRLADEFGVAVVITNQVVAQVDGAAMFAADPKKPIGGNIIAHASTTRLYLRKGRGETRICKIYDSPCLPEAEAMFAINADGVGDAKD
UniProt Q06609, whole entry K133R: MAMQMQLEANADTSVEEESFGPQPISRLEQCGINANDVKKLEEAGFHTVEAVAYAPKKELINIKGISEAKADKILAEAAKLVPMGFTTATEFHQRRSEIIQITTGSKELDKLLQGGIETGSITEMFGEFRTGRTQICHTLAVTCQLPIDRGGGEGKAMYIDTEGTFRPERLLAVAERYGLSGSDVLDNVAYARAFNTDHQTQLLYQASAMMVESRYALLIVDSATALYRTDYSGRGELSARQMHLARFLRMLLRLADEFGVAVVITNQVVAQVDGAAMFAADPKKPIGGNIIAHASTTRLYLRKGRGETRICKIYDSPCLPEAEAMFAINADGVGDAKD

How the values were obtained:
Test in all cases: BLI
Conditions in all cases: 2 mM ATP, 2 mM Mg2+, filament then disrupted by RECQ5/BRC3; BLI: 25 mM Tris-HCl pH 7.5, 50 mM KCl, 2 mM MgCl2, 200 ug/mL BSA, 0.05% Tween 20, 2 mM ATP, room temperature; recombinant protein; label: 5' biotin; single-stranded DNA
[1] = target: RAD51-I287T (human) (UniProt Q06609)
[2] = target: RAD51-K133A (human) (UniProt Q06609)
[3] = target: RAD51-K133R (human) (UniProt Q06609)

Measured: binding result

TTTTTTTTTTTTTTTTTTTTTTTTTTTTTTTTTTTTTTTTTTT [dT43-mer]
binds: [1] | [2] | [3]

Construct, isoform or probe ends are uncertain for at least one entry. At least one verdict was read from the data and is not stated in words by the source.
